± gives the standard deviation of the averaged measurements. Only a part is listed here, and it is no random draw.

The chains behind the UniProt entries cited, without tags or fusion partners. Where a name states a change or a piece, a line headed by the entry shows the natural chain unless it says otherwise.
UniProt Q9NZM4: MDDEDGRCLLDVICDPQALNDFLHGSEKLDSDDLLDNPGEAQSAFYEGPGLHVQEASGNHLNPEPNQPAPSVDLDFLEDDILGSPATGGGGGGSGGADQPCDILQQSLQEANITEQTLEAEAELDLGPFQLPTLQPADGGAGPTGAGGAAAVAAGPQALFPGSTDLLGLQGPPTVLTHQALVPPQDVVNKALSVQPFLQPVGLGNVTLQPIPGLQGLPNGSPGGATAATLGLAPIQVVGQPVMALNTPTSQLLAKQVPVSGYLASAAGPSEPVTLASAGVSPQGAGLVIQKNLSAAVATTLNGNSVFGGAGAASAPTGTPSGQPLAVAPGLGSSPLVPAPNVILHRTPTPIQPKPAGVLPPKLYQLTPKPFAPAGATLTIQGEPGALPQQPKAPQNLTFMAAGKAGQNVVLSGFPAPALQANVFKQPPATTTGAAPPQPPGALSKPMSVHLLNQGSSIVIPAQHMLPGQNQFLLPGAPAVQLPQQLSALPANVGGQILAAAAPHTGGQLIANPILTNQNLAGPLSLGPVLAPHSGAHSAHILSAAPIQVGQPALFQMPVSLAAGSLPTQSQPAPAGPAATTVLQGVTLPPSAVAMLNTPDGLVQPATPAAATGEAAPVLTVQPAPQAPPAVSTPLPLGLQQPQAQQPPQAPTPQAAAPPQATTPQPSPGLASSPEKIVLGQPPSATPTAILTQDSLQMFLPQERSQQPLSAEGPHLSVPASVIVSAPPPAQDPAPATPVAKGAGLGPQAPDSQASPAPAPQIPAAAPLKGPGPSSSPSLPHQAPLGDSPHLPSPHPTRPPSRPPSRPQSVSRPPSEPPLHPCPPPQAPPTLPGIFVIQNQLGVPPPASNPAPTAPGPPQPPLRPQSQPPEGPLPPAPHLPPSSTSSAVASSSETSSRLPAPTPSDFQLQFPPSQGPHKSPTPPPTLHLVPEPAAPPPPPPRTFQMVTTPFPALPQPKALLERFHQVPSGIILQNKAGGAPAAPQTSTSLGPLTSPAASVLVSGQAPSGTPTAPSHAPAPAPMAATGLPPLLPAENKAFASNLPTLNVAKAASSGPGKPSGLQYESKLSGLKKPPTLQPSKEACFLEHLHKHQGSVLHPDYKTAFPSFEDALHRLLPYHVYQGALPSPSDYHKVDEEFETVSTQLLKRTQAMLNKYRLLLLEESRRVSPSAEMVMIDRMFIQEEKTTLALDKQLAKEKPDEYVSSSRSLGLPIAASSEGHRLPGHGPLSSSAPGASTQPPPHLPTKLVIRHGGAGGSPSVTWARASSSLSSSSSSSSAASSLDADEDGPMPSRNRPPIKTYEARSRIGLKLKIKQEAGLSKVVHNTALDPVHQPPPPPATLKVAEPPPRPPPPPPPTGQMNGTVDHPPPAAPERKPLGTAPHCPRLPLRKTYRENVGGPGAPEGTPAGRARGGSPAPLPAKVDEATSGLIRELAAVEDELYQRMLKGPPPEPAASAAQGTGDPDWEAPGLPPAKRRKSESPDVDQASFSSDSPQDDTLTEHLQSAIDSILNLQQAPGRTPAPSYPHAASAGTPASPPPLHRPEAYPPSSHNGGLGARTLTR
UniProt P22570: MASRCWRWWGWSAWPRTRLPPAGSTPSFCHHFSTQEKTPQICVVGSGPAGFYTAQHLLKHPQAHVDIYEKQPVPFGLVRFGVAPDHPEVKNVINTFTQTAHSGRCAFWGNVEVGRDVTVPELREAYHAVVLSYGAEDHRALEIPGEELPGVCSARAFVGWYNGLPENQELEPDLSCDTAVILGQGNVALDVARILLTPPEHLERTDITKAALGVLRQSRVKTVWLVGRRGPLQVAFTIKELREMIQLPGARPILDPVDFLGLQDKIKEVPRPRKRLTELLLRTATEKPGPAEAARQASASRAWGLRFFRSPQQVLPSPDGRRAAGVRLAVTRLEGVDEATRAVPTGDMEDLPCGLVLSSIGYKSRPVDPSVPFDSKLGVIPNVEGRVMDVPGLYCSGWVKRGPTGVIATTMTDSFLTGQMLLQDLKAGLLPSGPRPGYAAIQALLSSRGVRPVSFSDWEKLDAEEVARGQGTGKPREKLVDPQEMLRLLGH
UniProt Q9UBW5: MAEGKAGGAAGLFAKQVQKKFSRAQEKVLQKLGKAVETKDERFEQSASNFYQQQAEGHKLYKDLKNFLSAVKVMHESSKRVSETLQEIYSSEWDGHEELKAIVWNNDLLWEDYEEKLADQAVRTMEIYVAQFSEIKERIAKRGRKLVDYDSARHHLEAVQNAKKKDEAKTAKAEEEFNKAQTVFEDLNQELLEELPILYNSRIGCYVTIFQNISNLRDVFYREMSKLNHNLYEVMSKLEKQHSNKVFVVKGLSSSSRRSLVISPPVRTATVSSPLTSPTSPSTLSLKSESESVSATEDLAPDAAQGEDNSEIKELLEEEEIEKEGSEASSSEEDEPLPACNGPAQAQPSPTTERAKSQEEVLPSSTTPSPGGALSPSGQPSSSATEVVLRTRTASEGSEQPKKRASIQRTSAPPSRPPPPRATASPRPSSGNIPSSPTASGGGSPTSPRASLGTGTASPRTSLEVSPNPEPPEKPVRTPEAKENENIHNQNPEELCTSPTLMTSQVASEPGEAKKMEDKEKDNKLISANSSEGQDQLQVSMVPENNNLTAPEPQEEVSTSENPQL
UniProt P31641: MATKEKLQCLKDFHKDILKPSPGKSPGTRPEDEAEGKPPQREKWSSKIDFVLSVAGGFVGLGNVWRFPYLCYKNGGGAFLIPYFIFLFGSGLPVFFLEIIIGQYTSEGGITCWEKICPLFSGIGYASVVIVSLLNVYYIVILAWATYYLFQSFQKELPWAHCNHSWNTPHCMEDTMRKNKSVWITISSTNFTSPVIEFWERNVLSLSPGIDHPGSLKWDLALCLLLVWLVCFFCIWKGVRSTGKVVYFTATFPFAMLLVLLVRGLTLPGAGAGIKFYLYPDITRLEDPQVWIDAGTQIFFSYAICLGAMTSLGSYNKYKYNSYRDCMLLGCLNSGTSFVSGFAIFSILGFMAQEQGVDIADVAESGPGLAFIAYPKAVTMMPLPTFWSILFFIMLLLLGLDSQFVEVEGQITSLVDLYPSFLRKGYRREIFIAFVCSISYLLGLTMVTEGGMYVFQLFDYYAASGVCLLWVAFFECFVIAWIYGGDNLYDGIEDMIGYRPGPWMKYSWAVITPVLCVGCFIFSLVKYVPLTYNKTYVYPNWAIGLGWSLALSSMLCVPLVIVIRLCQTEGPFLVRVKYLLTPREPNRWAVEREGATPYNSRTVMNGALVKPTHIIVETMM
UniProt Q9BVL4, whole entry: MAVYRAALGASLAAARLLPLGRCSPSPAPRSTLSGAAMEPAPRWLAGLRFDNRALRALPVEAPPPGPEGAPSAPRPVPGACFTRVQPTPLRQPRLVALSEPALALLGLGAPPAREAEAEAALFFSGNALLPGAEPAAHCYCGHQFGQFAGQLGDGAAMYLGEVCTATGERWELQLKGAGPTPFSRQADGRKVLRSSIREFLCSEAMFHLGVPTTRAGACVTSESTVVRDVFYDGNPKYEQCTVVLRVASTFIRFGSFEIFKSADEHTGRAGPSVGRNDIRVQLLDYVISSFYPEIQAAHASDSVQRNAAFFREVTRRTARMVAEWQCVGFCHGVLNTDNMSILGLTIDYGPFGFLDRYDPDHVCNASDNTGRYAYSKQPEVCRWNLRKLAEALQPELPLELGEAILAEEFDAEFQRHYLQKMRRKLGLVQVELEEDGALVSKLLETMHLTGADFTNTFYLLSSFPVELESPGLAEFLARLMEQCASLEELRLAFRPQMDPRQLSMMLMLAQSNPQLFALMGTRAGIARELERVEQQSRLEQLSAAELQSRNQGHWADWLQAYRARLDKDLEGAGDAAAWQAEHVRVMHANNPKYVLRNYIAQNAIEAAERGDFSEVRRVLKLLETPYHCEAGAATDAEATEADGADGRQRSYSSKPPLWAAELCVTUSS
UniProt P01848, whole entry, looked up: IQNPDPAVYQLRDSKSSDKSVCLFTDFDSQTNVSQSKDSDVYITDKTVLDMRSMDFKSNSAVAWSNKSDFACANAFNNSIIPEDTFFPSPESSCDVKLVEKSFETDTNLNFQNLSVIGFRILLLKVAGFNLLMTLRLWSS
UniProt Q13617, whole entry: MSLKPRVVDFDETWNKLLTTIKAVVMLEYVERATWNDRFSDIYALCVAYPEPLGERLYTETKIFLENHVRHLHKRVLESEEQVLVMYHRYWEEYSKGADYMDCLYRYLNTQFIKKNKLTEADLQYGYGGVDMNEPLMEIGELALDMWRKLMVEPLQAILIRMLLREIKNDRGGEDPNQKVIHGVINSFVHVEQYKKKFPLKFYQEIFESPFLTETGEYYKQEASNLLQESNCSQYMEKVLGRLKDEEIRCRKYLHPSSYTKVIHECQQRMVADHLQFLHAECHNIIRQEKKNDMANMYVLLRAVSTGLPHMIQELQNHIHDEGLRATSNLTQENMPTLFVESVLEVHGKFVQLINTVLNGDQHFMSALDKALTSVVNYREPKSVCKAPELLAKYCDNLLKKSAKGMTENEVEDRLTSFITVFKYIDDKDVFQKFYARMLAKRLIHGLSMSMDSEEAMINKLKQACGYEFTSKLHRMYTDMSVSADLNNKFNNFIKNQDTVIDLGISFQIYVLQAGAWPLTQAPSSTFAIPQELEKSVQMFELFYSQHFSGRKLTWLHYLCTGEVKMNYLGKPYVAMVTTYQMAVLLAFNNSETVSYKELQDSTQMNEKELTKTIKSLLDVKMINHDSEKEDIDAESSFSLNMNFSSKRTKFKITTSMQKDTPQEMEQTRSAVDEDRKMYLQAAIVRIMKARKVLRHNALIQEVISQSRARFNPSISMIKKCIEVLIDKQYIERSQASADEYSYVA
UniProt P56556, whole entry: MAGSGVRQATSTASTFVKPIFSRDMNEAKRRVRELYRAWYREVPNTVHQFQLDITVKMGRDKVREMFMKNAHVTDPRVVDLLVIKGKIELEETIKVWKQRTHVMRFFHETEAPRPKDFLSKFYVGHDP
UniProt Q96AP0: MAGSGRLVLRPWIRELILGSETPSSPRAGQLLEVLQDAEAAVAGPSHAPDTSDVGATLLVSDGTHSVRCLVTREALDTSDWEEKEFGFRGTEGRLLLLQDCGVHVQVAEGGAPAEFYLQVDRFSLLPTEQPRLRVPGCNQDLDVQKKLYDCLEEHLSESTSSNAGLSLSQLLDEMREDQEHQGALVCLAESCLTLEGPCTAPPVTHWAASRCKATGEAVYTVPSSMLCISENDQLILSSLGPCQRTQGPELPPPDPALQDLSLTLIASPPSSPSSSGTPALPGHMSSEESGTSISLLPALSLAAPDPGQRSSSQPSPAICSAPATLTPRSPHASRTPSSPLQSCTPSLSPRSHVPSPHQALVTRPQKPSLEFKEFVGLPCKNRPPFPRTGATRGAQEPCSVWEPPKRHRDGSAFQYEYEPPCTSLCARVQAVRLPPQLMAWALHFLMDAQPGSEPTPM
UniProt Q9Y666: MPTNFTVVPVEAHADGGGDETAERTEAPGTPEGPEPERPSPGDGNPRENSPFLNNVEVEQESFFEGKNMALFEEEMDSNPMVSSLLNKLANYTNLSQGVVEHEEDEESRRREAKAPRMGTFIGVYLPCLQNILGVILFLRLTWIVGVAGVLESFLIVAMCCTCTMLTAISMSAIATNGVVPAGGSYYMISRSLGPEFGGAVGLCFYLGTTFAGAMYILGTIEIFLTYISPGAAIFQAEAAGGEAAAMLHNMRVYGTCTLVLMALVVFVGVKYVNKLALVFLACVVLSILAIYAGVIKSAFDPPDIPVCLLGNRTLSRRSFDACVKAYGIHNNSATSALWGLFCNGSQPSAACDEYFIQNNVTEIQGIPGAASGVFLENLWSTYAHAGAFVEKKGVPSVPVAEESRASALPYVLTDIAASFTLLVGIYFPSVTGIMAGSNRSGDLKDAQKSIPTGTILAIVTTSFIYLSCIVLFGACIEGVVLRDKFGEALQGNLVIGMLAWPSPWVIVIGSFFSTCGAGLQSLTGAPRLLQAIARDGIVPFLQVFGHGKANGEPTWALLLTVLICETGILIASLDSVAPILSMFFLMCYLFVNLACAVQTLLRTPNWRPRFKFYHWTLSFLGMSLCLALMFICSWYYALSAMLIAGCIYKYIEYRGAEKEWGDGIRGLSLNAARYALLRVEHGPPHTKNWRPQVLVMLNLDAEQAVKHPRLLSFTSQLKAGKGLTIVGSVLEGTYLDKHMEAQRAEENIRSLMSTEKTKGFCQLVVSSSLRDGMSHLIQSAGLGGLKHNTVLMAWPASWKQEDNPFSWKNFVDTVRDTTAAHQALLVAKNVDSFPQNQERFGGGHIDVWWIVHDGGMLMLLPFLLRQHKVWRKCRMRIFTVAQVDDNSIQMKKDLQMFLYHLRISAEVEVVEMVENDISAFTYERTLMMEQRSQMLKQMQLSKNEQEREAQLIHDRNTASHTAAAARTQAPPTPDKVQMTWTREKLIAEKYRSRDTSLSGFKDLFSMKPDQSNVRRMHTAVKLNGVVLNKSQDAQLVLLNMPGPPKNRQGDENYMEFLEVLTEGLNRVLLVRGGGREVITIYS

Data on 35 targets can be found in the supplement of paper PMC6411743.

Compound in the first experiment: Nc1ncnc2c1ncn2[C@@H]1O[C@H](COP(=O)(O)OP(=O)(O)NP(=O)(O)O)[C@@H](O)[C@H]1O [adenylyl imidodiphosphate]
Description: NP40-soluble protein abundance relative to vehicle (solubility fold change) (ratio); higher = more soluble protein in presence of AMP-PNP. The following applies: concentration: 1mM. The procedure, abridged:
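Data come from three independent experiments in which Dounce-homogenised Jurkat crude lysate was treated at eight concentrations from 0.1 to 10 mM. Treatment ran 10 min at room temperature and then 3 min at 37 °C, after which 0.8% NP40 and benzonase were added for 60 min at 4 °C before ultracentrifugation. The supernatant underwent TMT labelling and LC-MS/MS, and vsn-normalised intensities were expressed as fold change against the detergent-processed vehicle in each replicate.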
Consider “A0A087WWH3|Q9NZM4 and related entries (UniProt Q9NZM4)”, for which the NP40-soluble protein abundance was determined as 1.02 ± 0.016.
Regarding “A0A0C4DFN8|P22570 and related entries (UniProt P22570)”, the NP40-soluble protein abundance worked out at 1.01 ± 0.0058.
Turning to “A0A0C4DGA2|O75521 and related entries (UniProt O75521)”, the NP40-soluble protein abundance came to 0.997 ± 0.027.
As for “A0A087X1K9|O75608 and related entries (UniProt O75608)”, the NP40-soluble protein abundance stood at 0.963 ± 0.046.
On the same count and under the same terms, then “A0A0G2JLB3|A0A0G2JNZ0|A0A0G2JNZ5|P04062 and related entries (UniProt P04062)”, with 0.967 ± 0.01; and A0A0D9SG71|P49459 (UniProt P49459), with 1.03 ± 0.03.
On the same count and under the same terms, then A0A087X188|Q9UBW5 (UniProt Q9UBW5), with 0.999 ± 0.04; and A0A0C4DFZ2|P15289 (UniProt P15289), with 1.02 ± 0.02; and SH3PXD2B (UniProt A1X283), with 1.02 ± 0.025.
The same measure, in the same setting: with “A0A0A6YYJ5|E9PLY5 and related entries (UniProt Q9UPN3+H3BQK9+H3BPE1+E9PLY5)” the figure was 1.01 ± 0.026; with A0A0C4DGV9|P49917 (UniProt P49917), 1.02 ± 0.032.
As to A0A087WY96|P31641 (UniProt P31641), the NP40-soluble protein abundance worked out at 1.01 ± 0.033.
Still for that read-out and setting: with “A0A0C4DGW2|P57768 and related entries (UniProt P57768)” the figure was 1.03 ± 0.026.
On the same count and under the same terms, then A0A087X0Q9|Q9BVL4 (UniProt Q9BVL4), with 1.037 ± 0.0092.
On the same count and under the same terms, with “A0A087WYL5|Q6UXD5-3|Q6UXD5-5|Q6UXD5-6|Q6UXD5 and related entries (UniProt Q6UXD5)” the figure was 1 ± 0.027; with “A0A0A0MRY0|Q8WUA7 and related entries (UniProt Q8WUA7)”, 1.03 ± 0.042; with “A0A087WWC6|P01848 and related entries (UniProt Q6P4I7+P01848)”, 1.01 ± 0.029.
“A0A087WXF8|A0A087WXU5|A0A087WYF0|A0A0D9SEW3|E7EPF0 and related entries (UniProt Q9NP64)”: the NP40-soluble protein abundance amounted to 0.976 ± 0.047.
As for A0A140T9T7|Q03518 (UniProt Q03518), the NP40-soluble protein abundance was 1.02 ± 0.033.
On the same count and under the same terms, then “A0A0A0MTN0|Q13617 and related entries (UniProt Q13617)”, with 0.947 ± 0.02.
As to A0A0A0MQY7|Q5VU97 (UniProt Q5VU97), the NP40-soluble protein abundance is 0.9824 ± 0.0077.
“A0A0A0MRJ6|C9J0F2 and related entries (UniProt P22061)”: the NP40-soluble protein abundance was 0.995 ± 0.032.
For “A0A0C4DGS0|P56556 and related entries (UniProt P56556)”, the NP40-soluble protein abundance was 0.97 ± 0.016.
For “A0A087X0C8|O15484 and related entries (UniProt O15484)”, the NP40-soluble protein abundance is 1.01 ± 0.056.
Same read-out and setting: then A0A087X0M4|Q9BWU0 (UniProt Q9BWU0), with 1.01 ± 0.016; and “A0A0A0MRF6|Q99996 and related entries (UniProt Q99996)”, with 1.03 ± 0.064.
Same read-out and setting: then “A0A0C4DFU2|P04179 and related entries (UniProt P04179)”, with 0.928 ± 0.048.
In the case of “A0A0A0MSM3|P46939 and related entries (UniProt P46939)”, the NP40-soluble protein abundance turned out to be 1.01 ± 0.024.
Still for that read-out and setting: then “A0A0C4DGT6|Q96AP0 and related entries (UniProt Q96AP0)”, with 1.03 ± 0.026; and “A0A140T9R1|A2ABJ5 and related entries (UniProt O75955)”, with 1.04 ± 0.048.
On the same count and under the same terms, then “A0A0C4DG21|E7EP65 and related entries (UniProt Q9NYB9)”, with 1.002 ± 0.0098; and “A0A087X0R0|F5H6S1 and related entries (UniProt O15550)”, with 1 ± 0.047.
In the case of A0A0C4DGZ1|Q8N5P1 (UniProt Q8N5P1), the NP40-soluble protein abundance was found to be 1 ± 0.034.
Take A0A0A0MRI1|Q8IXQ4 (UniProt Q8IXQ4): the NP40-soluble protein abundance is 1.07 ± 0.028.
Same read-out and setting: then A0A0G2JNW7|Q9Y666 (UniProt Q9Y666), with 0.979 ± 0.033.

Still in this experiment, the particulars now being: concentration: 2mM.
Consider “A0A087WWH3|Q9NZM4 and related entries (UniProt Q9NZM4)”, for which the NP40-soluble protein abundance amounted to 1.04 ± 0.021.
Still for that read-out and setting: then “A0A0C4DFN8|P22570 and related entries (UniProt P22570)”, with 1.01 ± 0.053; and “A0A0C4DGA2|O75521 and related entries (UniProt O75521)”, with 0.993 ± 0.027; and “A0A087X1K9|O75608 and related entries (UniProt O75608)”, with 0.956 ± 0.026.
On the same count and under the same terms, then “A0A0G2JLB3|A0A0G2JNZ0|A0A0G2JNZ5|P04062 and related entries (UniProt P04062)”, with 0.98 ± 0.02.
Same read-out and setting: with A0A0D9SG71|P49459 (UniProt P49459) the figure was 1.02 ± 0.019; with A0A087X188|Q9UBW5 (UniProt Q9UBW5), 1.06 ± 0.12; with A0A0C4DFZ2|P15289 (UniProt P15289), 1.03 ± 0.037.
As to SH3PXD2B (UniProt A1X283), the NP40-soluble protein abundance is 1.06 ± 0.057.
The same measure, in the same setting: then “A0A0A6YYJ5|E9PLY5 and related entries (UniProt Q9UPN3+H3BQK9+H3BPE1+E9PLY5)”, with 1.04 ± 0.032; and A0A0C4DGV9|P49917 (UniProt P49917), with 0.969 ± 0.12; and A0A087WY96|P31641 (UniProt P31641), with 1.01 ± 0.044.
Still for that read-out and setting: with “A0A0C4DGW2|P57768 and related entries (UniProt P57768)” the figure was 1.02 ± 0.033; with A0A087X0Q9|Q9BVL4 (UniProt Q9BVL4), 0.9994 ± 0.0072; with “A0A087WYL5|Q6UXD5-3|Q6UXD5-5|Q6UXD5-6|Q6UXD5 and related entries (UniProt Q6UXD5)”, 1.01 ± 0.036.
With “A0A0A0MRY0|Q8WUA7 and related entries (UniProt Q8WUA7)”, the NP40-soluble protein abundance was 1.05 ± 0.026.
On the same count and under the same terms, then “A0A087WWC6|P01848 and related entries (UniProt Q6P4I7+P01848)”, with 1.05 ± 0.077; and “A0A087WXF8|A0A087WXU5|A0A087WYF0|A0A0D9SEW3|E7EPF0 and related entries (UniProt Q9NP64)”, with 0.996 ± 0.015; and A0A140T9T7|Q03518 (UniProt Q03518), with 0.987 ± 0.075.
On to “A0A0A0MTN0|Q13617 and related entries (UniProt Q13617)”, for which the NP40-soluble protein abundance turned out to be 0.896 ± 0.089.
In the case of A0A0A0MQY7|Q5VU97 (UniProt Q5VU97), the NP40-soluble protein abundance was determined as 1 ± 0.013.
Same read-out and setting: then “A0A0A0MRJ6|C9J0F2 and related entries (UniProt P22061)”, with 0.979 ± 0.029.
As for “A0A0C4DGS0|P56556 and related entries (UniProt P56556)”, the NP40-soluble protein abundance was 0.972 ± 0.044.
“A0A087X0C8|O15484 and related entries (UniProt O15484)”: the NP40-soluble protein abundance worked out at 0.983 ± 0.034.
The same measure, in the same setting: then A0A087X0M4|Q9BWU0 (UniProt Q9BWU0), with 1.01 ± 0.016; and “A0A0A0MRF6|Q99996 and related entries (UniProt Q99996)”, with 1.04 ± 0.026.
Consider “A0A0C4DFU2|P04179 and related entries (UniProt P04179)”, for which the NP40-soluble protein abundance came to 0.934 ± 0.027.
On the same count and under the same terms, then “A0A0A0MSM3|P46939 and related entries (UniProt P46939)”, with 1.03 ± 0.037; and “A0A0C4DGT6|Q96AP0 and related entries (UniProt Q96AP0)”, with 1.04 ± 0.039; and “A0A140T9R1|A2ABJ5 and related entries (UniProt O75955)”, with 1 ± 0.018.
On the same count and under the same terms, then “A0A0C4DG21|E7EP65 and related entries (UniProt Q9NYB9)”, with 1.04 ± 0.069; and “A0A087X0R0|F5H6S1 and related entries (UniProt O15550)”, with 1.02 ± 0.035.
On to A0A0C4DGZ1|Q8N5P1 (UniProt Q8N5P1), for which the NP40-soluble protein abundance worked out at 1.11 ± 0.1.
Still for that read-out and setting: with A0A0A0MRI1|Q8IXQ4 (UniProt Q8IXQ4) the figure was 1.14 ± 0.057; with A0A0G2JNW7|Q9Y666 (UniProt Q9Y666), 0.999 ± 0.028.
